Record: PubChem BioAssay AID1053208 (Peter MacCallum Cancer Centre, 2014)
Here is a random part of about 17,000 reagents tested. 788 of all reagents (4.7%) were called active. 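Calls rest on z-score classes alone; an extra cut-off of viability at most 70% of control was not applied to them.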 Entries without a mark were called inactive. Further read-outs or replicates are left out here. Reagent sequences are not shown.

- Purpose: 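Genes whose silencing cuts survival of bone tumour cells only with doxorubicin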 (primary screen)
- System: mouse osteosarcoma cells, early-passage culture from an engineered mouse model of fibroblastic bone tumour
- Knock-down reagent: siRNA pool against mouse genes, 40 nM
- Time to read-out: about 120 h (48 h before drug, then 72 h with drug)
- Challenge: doxorubicin 100 nM for 72 h, roughly 30-40% inhibitory dose
- Measured: 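Viability read as ATP luminescence after 72 h of 100 nM doxorubicin or none, duplicate wells averaged, scaled to non-targeting siRNA, then expressed as robust z-scores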
- Scale: viability z-score with doxorubicin: higher = more viable cells under doxorubicin; viability z-score without drug: higher = more viable cells with knock-down alone
- Call rule: 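Called active if knock-down leaves viability unchanged without drug (z within -2 to 2) but lowers it with doxorubicin (z at or under -2)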

Derl3 (Der1-like domain family, member 3) → combined z-score class = high cell count without drug only; viability z-score with doxorubicin = 0.34; viability z-score without drug = 2.19
Tjap1 (tight junction associated protein 1) → combined z-score class = no change with or without drug; viability z-score with doxorubicin = -1.46; viability z-score without drug = -1.18
Or1j16 (olfactory receptor family 1 subfamily J member 16) → combined z-score class = no change with or without drug; viability z-score with doxorubicin = -1.8; viability z-score without drug = -1.01
Gorasp2 (golgi reassembly stacking protein 2) → combined z-score class = no change with or without drug; viability z-score with doxorubicin = -0.22; viability z-score without drug = -0.84
Abca7 (ATP-binding cassette, sub-family A member 7) → combined z-score class = no change with or without drug; viability z-score with doxorubicin = -0.22; viability z-score without drug = -0.17
Rad51c (RAD51 paralog C) → combined z-score class = no change with or without drug; viability z-score with doxorubicin = 0.9; viability z-score without drug = -1.01
Stc2 (stanniocalcin 2) → combined z-score class = no change with or without drug; viability z-score with doxorubicin = 0.79; viability z-score without drug = 0.84
Or2a12 (olfactory receptor family 2 subfamily A member 12) → combined z-score class = no change with or without drug; viability z-score with doxorubicin = -1.24; viability z-score without drug = -1.52
Dlgap2 (DLG associated protein 2) → combined z-score class = no change with or without drug; viability z-score with doxorubicin = 0.34; viability z-score without drug = 0.84
Coa7 (cytochrome c oxidase assembly factor 7) → combined z-score class = low cell count with doxorubicin only (active); viability z-score with doxorubicin = -2.7; viability z-score without drug = 1.35
Slc17a1 → combined z-score class = no change with or without drug; viability z-score with doxorubicin = -0.9; viability z-score without drug = -0.51
4632425D07RIK → combined z-score class = no change with or without drug; viability z-score with doxorubicin = 1.01; viability z-score without drug = 1.18
Aldh18a1 (aldehyde dehydrogenase 18 family, member A1) → combined z-score class = no change with or without drug; viability z-score with doxorubicin = 0.9; viability z-score without drug = 1.01
Arpc4 (actin related protein 2/3 complex, subunit 4) → combined z-score class = high cell count with and without drug; viability z-score with doxorubicin = 2.81; viability z-score without drug = 2.19
Gcc1 (golgi coiled coil 1) → combined z-score class = no change with or without drug; viability z-score with doxorubicin = -0.22; viability z-score without drug = 0.67
Limk2 (LIM domain kinase 2) → combined z-score class = no change with or without drug; viability z-score with doxorubicin = 1.8; viability z-score without drug = 0.34
Mrps9 (mitochondrial ribosomal protein S9) → combined z-score class = no change with or without drug; viability z-score with doxorubicin = -1.69; viability z-score without drug = -1.52
Aatf (apoptosis antagonizing transcription factor) → combined z-score class = no change with or without drug; viability z-score with doxorubicin = -1.24; viability z-score without drug = -0.17
Stmn3 (stathmin-like 3) → combined z-score class = no change with or without drug; viability z-score with doxorubicin = -0.9; viability z-score without drug = -1.52

2 entries from above, set out differently.
Dlgap2 (DLG associated protein 2)
- combined z-score class: no change with or without drug
- viability z-score with doxorubicin: 0.34
- viability z-score without drug: 0.84

Coa7 (cytochrome c oxidase assembly factor 7)
- combined z-score class: low cell count with doxorubicin only (active)
- viability z-score with doxorubicin: -2.7
- viability z-score without drug: 1.35
